From paper PMC13319145
These are yes or no findings as the source states them, for the method shown.

By UniProt entry, the sequences of proteins in these tests, tags left out. Residues count along the entry.
UniProt P13686, residues 22-325: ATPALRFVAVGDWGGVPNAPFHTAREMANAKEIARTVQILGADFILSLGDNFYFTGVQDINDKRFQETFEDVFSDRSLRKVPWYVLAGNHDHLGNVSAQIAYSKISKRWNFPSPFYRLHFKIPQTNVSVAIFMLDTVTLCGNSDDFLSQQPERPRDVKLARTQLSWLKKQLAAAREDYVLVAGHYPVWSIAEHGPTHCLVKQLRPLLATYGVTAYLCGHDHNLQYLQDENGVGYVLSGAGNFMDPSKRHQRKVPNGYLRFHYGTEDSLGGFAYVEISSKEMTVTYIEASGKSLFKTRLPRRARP

Molecular target: wild-type purple acid phosphatase (human) (UniProt P13686)
Assay: mass photometry; 20 ul of 5 nM protein samples added to 4 ul buffer; glycosylated proteins stored in 0.1 M acetate buffer; landing assays, 60 s at 331 Hz; both purified

wild-type purple acid phosphatase (from UniProt P13686 22-325) (enzyme)
binding: no binding (tested: 5 nM protein samples)
